Data as given in paper PMC7862700.
The list shows a part of the results, in another mix than the full data. At the low end of the ranking the order means little.

How the values were obtained:
Assay in all cases: DAPPL (digital affinity profiling via proximity ligation, sequencing)
Details in all cases: 10 mM Tris-HCl pH 7.5, 50 mM NaCl, 1 mM DTT, 4% glycerol, room temperature, 30 min; GST-TFs on glutathione beads, 16-mer random dsDNA library, 0.1% …; high values mean tight binding; double strand, one strand shown; scale: fold enrichment (6-mer frequency, TF over GST control)
[1] = biological target: T1, ELK1 (UniProt P19419)
T1 sequence: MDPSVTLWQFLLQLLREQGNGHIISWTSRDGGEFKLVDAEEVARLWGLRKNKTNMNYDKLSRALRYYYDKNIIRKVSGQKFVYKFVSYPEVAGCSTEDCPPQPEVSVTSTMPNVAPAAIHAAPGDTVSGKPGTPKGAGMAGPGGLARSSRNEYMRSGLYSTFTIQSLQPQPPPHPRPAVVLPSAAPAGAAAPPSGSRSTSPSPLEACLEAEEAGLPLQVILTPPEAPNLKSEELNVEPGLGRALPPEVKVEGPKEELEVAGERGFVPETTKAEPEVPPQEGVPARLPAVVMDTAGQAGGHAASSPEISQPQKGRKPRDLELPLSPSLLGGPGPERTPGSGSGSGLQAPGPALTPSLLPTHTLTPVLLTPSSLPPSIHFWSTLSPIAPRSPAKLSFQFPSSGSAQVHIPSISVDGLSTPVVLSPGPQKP

[2] = biological target: T2, ELK3 (UniProt P41970)
T2 sequence: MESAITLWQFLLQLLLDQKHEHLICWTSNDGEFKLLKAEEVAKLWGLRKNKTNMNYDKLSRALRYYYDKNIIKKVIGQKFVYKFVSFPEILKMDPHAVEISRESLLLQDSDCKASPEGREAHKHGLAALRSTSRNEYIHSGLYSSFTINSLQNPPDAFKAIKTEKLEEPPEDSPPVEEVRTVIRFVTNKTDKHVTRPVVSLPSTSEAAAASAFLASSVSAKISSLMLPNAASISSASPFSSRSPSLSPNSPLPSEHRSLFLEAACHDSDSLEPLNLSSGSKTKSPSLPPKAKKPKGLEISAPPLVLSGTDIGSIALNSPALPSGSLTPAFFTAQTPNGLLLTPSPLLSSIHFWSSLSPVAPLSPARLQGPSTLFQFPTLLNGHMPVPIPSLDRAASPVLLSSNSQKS

[3] = biological target: T3, ETS2 (UniProt P15036)
T3 sequence: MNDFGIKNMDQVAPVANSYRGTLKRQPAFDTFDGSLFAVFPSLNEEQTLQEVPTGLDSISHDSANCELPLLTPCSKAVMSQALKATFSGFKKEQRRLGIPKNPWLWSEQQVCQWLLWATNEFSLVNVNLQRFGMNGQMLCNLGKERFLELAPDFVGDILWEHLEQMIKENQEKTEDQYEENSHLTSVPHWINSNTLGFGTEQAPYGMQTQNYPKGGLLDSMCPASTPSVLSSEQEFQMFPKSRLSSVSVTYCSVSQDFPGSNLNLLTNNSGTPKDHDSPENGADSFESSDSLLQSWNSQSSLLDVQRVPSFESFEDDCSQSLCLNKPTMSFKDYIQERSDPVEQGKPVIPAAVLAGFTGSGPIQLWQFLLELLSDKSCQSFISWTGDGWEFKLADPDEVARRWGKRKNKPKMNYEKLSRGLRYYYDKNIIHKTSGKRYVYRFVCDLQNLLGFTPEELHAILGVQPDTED

[4] = biological target: T4, ETV3 (UniProt P41162-2)
T4 sequence: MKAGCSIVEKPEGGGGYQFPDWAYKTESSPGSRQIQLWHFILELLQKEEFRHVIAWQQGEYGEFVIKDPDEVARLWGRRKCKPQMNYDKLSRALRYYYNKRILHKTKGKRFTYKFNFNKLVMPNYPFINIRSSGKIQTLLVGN

| Sequence | binding signal [1] | binding signal [2] | binding signal [3] | binding signal [4] |
| --- | --- | --- | --- | --- |
| ATGAGG | 0.899 | 0.966 | 0.985 |  |
| ATAGGC | 0.95 |  |  | 0.945 |
| TCACAA | 1.14 |  |  | 1.08 |
| CGCAAT | 0.974 | 0.947 | 0.946 |  |
| GCCCGC | 1.15 |  |  | 1.16 |
| CGGATC | 0.947 | 0.916 | 0.984 |  |
| GTACTA | 1.06 |  |  | 1.09 |
| ATCCTC | 1.47 | 1.36 | 1.41 |  |
| GTACAA | 1.08 |  |  | 1.11 |
| TGCCCT | 1.25 | 1.07 | 1.21 |  |
| GTTTCA | 1.27 |  |  | 1.3 |
| TCGATA | 1.03 |  |  | 1.11 |
| TGATCA | 1.05 | 1.18 | 1.06 |  |
| CCCGCG | 1.05 | 0.95 | 0.947 |  |
| TCGAGC | 0.968 | 1.01 | 0.995 |  |
| TCCTAA | 1.34 | 1.43 | 1.49 |  |
| ATCCCA | 1.14 |  |  | 0.995 |
| ATATCC | 2.88 |  |  | 2.89 |
| AACGCG | 0.994 | 0.963 | 0.99 |  |
| GATACA | 0.989 |  |  | 1.01 |
| AGGTCC | 0.97 | 0.883 | 0.949 |  |
| CTCCCC | 1.31 |  |  | 1.38 |
| TGTCCT | 1.38 | 1.41 | 1.47 |  |
| CCTAGG | 0.914 | 0.921 | 0.963 |  |

| Sequence | binding signal [1] | binding signal [2] | binding signal [3] | binding signal [4] |
| --- | --- | --- | --- | --- |
| CTGAAG | 1.14 |  |  | 1.05 |
| TCTAGG | 0.964 |  |  | 1.12 |
| TGAAAT | 0.993 | 0.973 | 0.976 |  |
| TTCGGC | 1.14 | 0.876 | 0.968 |  |
| TATAGG | 1.06 |  |  | 1.17 |
| CGCTAT | 0.988 |  |  | 1.14 |
| CGTTTC | 1.68 |  |  | 1.83 |
| TCTATA | 1.13 |  |  | 1.06 |
| TCCGCT |  |  | 2.32 | 2.44 |
| GGGGCT |  | 0.979 | 0.969 | 0.905 |
| TGCATA |  | 1.15 | 1.17 | 1.11 |
| CACCTA |  | 0.984 | 0.993 | 0.982 |
| CATGGC |  |  | 0.98 | 1.05 |
| CACCTC |  |  | 1.06 | 1.15 |
| TTGCTC |  |  | 1.33 | 1.2 |
| ATATAG |  | 1.23 | 1.11 | 1.19 |
| GACATG |  | 0.926 | 0.992 | 0.99 |
| AGATTT |  |  | 1.17 | 1.05 |
| CTTACA |  |  | 1.14 | 1.29 |
| CTACAG |  | 1.08 | 0.966 | 0.952 |
| TGATCG |  |  | 1.03 | 1.11 |
| ACCCCT |  |  | 1.08 | 1.03 |
| CGCAAA |  |  | 1.06 | 0.974 |

Another view of part of the listing above.
Sequence,binding signal [1],binding signal [2],binding signal [3],binding signal [4]
ATATAG,,1.23,1.11,1.19
GACATG,,0.926,0.992,0.99
